Literature values in patent US20070225367A1, “Composition for beneficially influencing Alzheimer's disease and/or for Alzheimer's prophylaxis” (Clariant International Ltd, priority 2006, published 2007).
Where a name gives a salt, the structure may show the parent alone. At least one structure is not confirmed: it was looked up by name or label, or the drawing left a doubt.

Details: oral, doses of from 10 to 20 mg, test subjects

CN(C)CCO [tartrate salt of DMAE, dimethylaminoethanol]
mental stimulation: mild mental stimulation
